Data from patent US10220091B2, “Combination treatments with sonic hedgehog inhibitors” (The General Hospital Corporation, priority 2013, dated 2019).

Tested on: Colo38, Colo38R, M21, M21R and TPF-10-741 cells
Experiment: MTT dose titration of PDGFRα-I
Format: cell-based
Conditions: Homo sapiens; dose titration experiment, MTT assay, the 5 cell lines; read-out: IC50 doses
Experimental: MTT assay was carried out as reported elsewhere^2. […] All experiments were performed three independent times in triplicates.
A dose titration experiment established the dose of PDGFRα-I to be combined with vemurafenib in the 5 cell lines. […] The dose of 1.5 μM and 3 μM for sunitinib and the dose of 10 μM and 20 μM for imatinib were chosen to be tested in combination with vemurafenib for their effect on cell growth (FIG. 9) and survival (FIG. 10). […] Furthermore, PDGFRα-I synergized (p<0.05) with vemurafenib to overcome BRAF-I resistance, increasing the growth inhibition of Colo38R, M21R and TPF-10-741 cells.

IC50: 15 µM
SMILES: Cc1ccc(NC(=O)c2ccc(CN3CCN(C)CC3)cc2)cc1Nc1nccc(-c2cccnc2)n1 [imatinib]
